# Cleaved PARP after 72 h of treatment

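Human melanoma cells were exposed to two drugs together for 72 h in 1,536-well plates and read by automated microscopy after fixing and staining. Each value is the cleaved-PARP-positive fraction of nuclei relative to DMSO-treated wells, in %, so that 100 equals the control and higher values mean more apoptosis. Every drug was used at one fixed concentration, the higher of two screened. No replicate spread is given; individual values may be noisy. Basal and induced levels differ widely between cell lines.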 Only some of the drugs and lines screened are listed, without regard to their results. An entry leaves out what has no value listed here. A dash means that no value is listed here.

Drugs:
dasatinib (0.02 µM): Cc1nc(Nc2ncc(C(=O)Nc3c(C)cccc3Cl)s2)cc(N2CCN(CCO)CC2)n1
PF-562271 (0.4 µM): CN(c1ncccc1CNc1nc(Nc2ccc3c(c2)CC(=O)N3)ncc1C(F)(F)F)S(C)(=O)=O
LFM-A13 (10 µM): C/C(O)=C(\C#N)C(=O)Nc1cc(Br)ccc1Br
KU-55933 (5 µM): O=c1cc(-c2cccc3c2Sc2ccccc2S3)oc(N2CCOCC2)c1
PLX4720 (0.4 µM): CCCS(=O)(=O)Nc1ccc(F)c(C(=O)c2c[nH]c3ncc(Cl)cc23)c1F
pioglitazone (10 µM): CCc1ccc(CCOc2ccc(CC3SC(=O)NC3=O)cc2)nc1 (stereo not drawn)
ZM336372 (10 µM): Cc1ccc(NC(=O)c2cccc(N(C)C)c2)cc1NC(=O)c1ccc(O)cc1
dorsomorphin (2 µM): c1cc(-c2cnn3cc(-c4ccc(OCCN5CCCCC5)cc4)cnc23)ccn1
L-779450 (1 µM): Oc1cc(-c2nc(-c3ccccc3)[nH]c2-c2ccncc2)ccc1Cl
stibogluconate (10 µM): O=C(O)[C@@H]1[O][Sb](=[O])([O][Sb]2(=[O])[O][C@H]([C@H](O)CO)[C@H](O)[C@H](C(=O)O)[O]2)[O][C@H]([C@H](O)CO)[C@@H]1O (stereo partly drawn)

{"combination": "ZM336372 and KU-55933", "501mel": 109, "COLO 792": 81.4, "SK-MEL-30": 84.4, "UACC-62": 132, "WM3526": 125, "WM1745": 104}
{"combination": "dorsomorphin and L-779450", "501mel": 384, "COLO 792": 116, "SK-MEL-30": 109, "UACC-62": 224, "WM3526": 244, "WM1745": 278}
{"combination": "dorsomorphin and ZM336372", "501mel": 104, "COLO 792": 72.0, "SK-MEL-30": 83.4, "UACC-62": 70.1, "WM3526": 126, "WM1745": 193}
{"combination": "pioglitazone and dorsomorphin", "501mel": 238, "COLO 792": 178, "SK-MEL-30": 48.5, "UACC-62": 148, "WM3526": 11.2, "WM1745": 180}
{"combination": "KU-55933 and pioglitazone", "501mel": 99.3, "COLO 792": 94.3, "SK-MEL-30": 87.8, "UACC-62": 122, "WM3526": 151, "WM1745": 108}
{"combination": "KU-55933 and LFM-A13", "501mel": 164, "COLO 792": 220, "SK-MEL-30": 78.4, "UACC-62": 62.3, "WM3526": 82.5, "WM1745": 109}
{"combination": "pioglitazone and LFM-A13", "501mel": 89.0, "COLO 792": 85.9, "SK-MEL-30": 161, "UACC-62": 11.5, "WM3526": 52.0, "WM1745": 155}
{"combination": "LFM-A13 and stibogluconate", "501mel": 31.2, "COLO 792": 75.0, "SK-MEL-30": 102, "UACC-62": 194, "WM3526": 102}
{"combination": "dasatinib and KU-55933", "501mel": 282, "COLO 792": 272, "SK-MEL-30": 123, "UACC-62": 242, "WM3526": 73.6, "WM1745": 179}
{"combination": "L-779450 and LFM-A13", "501mel": 55.6, "COLO 792": 87.0, "SK-MEL-30": 63.0, "UACC-62": 180, "WM3526": 246, "WM1745": 147}
{"combination": "dasatinib and LFM-A13", "501mel": 173, "COLO 792": 134, "SK-MEL-30": 147, "UACC-62": 247, "WM3526": 112, "WM1745": 273}
{"combination": "PLX4720 and dasatinib", "COLO 792": 166, "SK-MEL-30": 95.7, "UACC-62": 250, "WM3526": 88.2, "WM1745": 190}
{"combination": "PLX4720 and ZM336372", "COLO 792": 133, "SK-MEL-30": 162, "UACC-62": 146, "WM3526": 103, "WM1745": 105}
{"combination": "dorsomorphin and KU-55933", "501mel": 92.1, "COLO 792": 65.4, "SK-MEL-30": 78.9, "UACC-62": 115, "WM3526": 114, "WM1745": 124}
{"combination": "dorsomorphin and LFM-A13", "501mel": 59.6, "COLO 792": 99.2, "SK-MEL-30": 68.2, "UACC-62": 164, "WM3526": 65.4, "WM1745": 135}
{"combination": "ZM336372 and pioglitazone", "501mel": 84.3, "COLO 792": 85.9, "SK-MEL-30": 47.8, "UACC-62": 91.8, "WM3526": 73.3, "WM1745": 101}
{"combination": "KU-55933 and PLX4720", "501mel": 131, "COLO 792": 57.5, "SK-MEL-30": 91.1, "UACC-62": 386, "WM3526": 371}
{"combination": "dasatinib and PF-562271", "COLO 792": 179, "SK-MEL-30": 108, "UACC-62": 182, "WM3526": 77.4, "WM1745": 402}
{"combination": "KU-55933 and stibogluconate", "501mel": 213, "COLO 792": 151, "SK-MEL-30": 33.3, "UACC-62": 356, "WM3526": 132}
{"combination": "ZM336372 and dasatinib", "COLO 792": 86.0, "SK-MEL-30": 39.7, "UACC-62": 151, "WM3526": 83.7, "WM1745": 309}
{"combination": "pioglitazone and stibogluconate", "501mel": 166, "COLO 792": 43.9, "SK-MEL-30": 50.1, "UACC-62": 81.1, "WM3526": 88.4}
{"combination": "L-779450 and dasatinib", "501mel": 198, "COLO 792": 81.2, "SK-MEL-30": 117, "UACC-62": 252, "WM3526": 232, "WM1745": 262}
{"combination": "dasatinib and dorsomorphin", "501mel": 172, "COLO 792": 119, "SK-MEL-30": 116, "UACC-62": 180, "WM3526": 178, "WM1745": 381}
{"combination": "stibogluconate and ZM336372", "COLO 792": 110, "SK-MEL-30": 79.8, "UACC-62": 114, "WM3526": 92.8, "WM1745": 141}
{"combination": "PLX4720 and LFM-A13", "501mel": 36.9, "COLO 792": 79.3, "SK-MEL-30": 155, "UACC-62": 588, "WM3526": 297}
{"combination": "stibogluconate and L-779450", "501mel": 45.5, "COLO 792": 124, "SK-MEL-30": 112, "UACC-62": 428, "WM3526": 337}
{"combination": "dorsomorphin and stibogluconate", "501mel": 239, "COLO 792": 76.6, "SK-MEL-30": 38.1, "UACC-62": 33.9, "WM3526": 76.1}
{"combination": "pioglitazone and dasatinib", "501mel": 39.1, "COLO 792": 194, "SK-MEL-30": 108, "UACC-62": 101, "WM3526": 133, "WM1745": 257}
{"combination": "dorsomorphin and PLX4720", "501mel": 141, "COLO 792": 104, "SK-MEL-30": 82.1, "UACC-62": 303, "WM3526": 354}
{"combination": "PF-562271 and ZM336372", "COLO 792": 178, "SK-MEL-30": 92.1, "UACC-62": 148, "WM3526": 171, "WM1745": 115}
{"combination": "L-779450 and ZM336372", "COLO 792": 60.7, "SK-MEL-30": 65.5, "UACC-62": 369, "WM3526": 164, "WM1745": 169}
{"combination": "pioglitazone and PF-562271", "501mel": 268, "COLO 792": 57.6, "SK-MEL-30": 130, "UACC-62": 183, "WM3526": 53.5}
{"combination": "stibogluconate and PF-562271", "COLO 792": 66.7, "SK-MEL-30": 140, "UACC-62": 194, "WM3526": 140, "WM1745": 125}
{"combination": "LFM-A13 and PF-562271", "501mel": 88.3, "COLO 792": 257, "SK-MEL-30": 76.5, "UACC-62": 240, "WM3526": 235}
{"combination": "pioglitazone and PLX4720", "501mel": 162, "COLO 792": 80.0, "SK-MEL-30": 89.3, "UACC-62": 376, "WM3526": 233}
{"combination": "PLX4720 and PF-562271", "COLO 792": 158, "SK-MEL-30": 86.3, "UACC-62": 392, "WM3526": 221, "WM1745": 131}
{"combination": "PF-562271 and dorsomorphin", "501mel": 118, "COLO 792": 107, "SK-MEL-30": 121, "UACC-62": 419, "WM3526": 108}
{"combination": "L-779450 and PLX4720", "501mel": 353, "COLO 792": 69.8, "SK-MEL-30": 91.5, "UACC-62": 474, "WM3526": 447}
{"combination": "KU-55933 and PF-562271", "501mel": 78.8, "COLO 792": 54.9, "SK-MEL-30": 77.0, "UACC-62": 132, "WM3526": 171}
{"combination": "PLX4720 and stibogluconate", "COLO 792": 109, "SK-MEL-30": 182, "UACC-62": 261, "WM3526": 364, "WM1745": 104}

Once more, the final 2:

| Combination | 501mel | COLO 792 | SK-MEL-30 | UACC-62 | WM3526 | WM1745 |
|---|---|---|---|---|---|---|
| KU-55933 and PF-562271 | 78.8 | 54.9 | 77.0 | 132 | 171 | - |
| PLX4720 and stibogluconate | - | 109 | 182 | 261 | 364 | 104 |

Data from the primary screen of doi:10.1371/journal.pone.0140310, rounded.